Reference: PubChem BioAssay AID1224830 (NIAID, 2016)

Assay: 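Host factors that control LPS-induced TNF expression in human macrophages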 (primary screen)
System: human THP-1 monocytic leukaemia cells, TNF dual-luciferase reporter clone, PMA-differentiated to macrophage-like cells
Reagents: siRNA pool against human genes, 50 nM
Duration: LPS for 4 h, given about 3 days after siRNA transfection
Conditions: bacterial LPS (TLR4 ligand), 10 ng/ml
Measured: 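TNF firefly reporter luminescence divided by renilla, normalised to the plate median, then turned into a robust z-score for each replicate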
Direction: TNF reporter robust z-score: higher = stronger TNF reporter response to LPS
Hit rule: 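Each well counts as active if its z-score is over 2.8 or under -1.5; controls are left without a call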
The deposit covers about 18,000 reagents; below is a random part of them. In the full data, about 2,900 (16%) were called active. 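Calls are made per well; low scores hint the gene aids the LPS response, high scores that it dampens it.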 Repeated entries: four replicate wells of each siRNA pool. Reagent sequences are not shown.

gene knocked down	TNF reporter robust z-score	activity call
INTS4	1.25	inactive
INTS4	1.1	inactive
INTS4	0.08	inactive
INTS4	1.53	inactive
TAS2R7	-1.42	inactive
TAS2R7	-1.06	inactive
TAS2R7	-1.51	active
TAS2R7	-1.4	inactive
BSPRY	1.71	inactive
BSPRY	1.18	inactive
BSPRY	-0.71	inactive
BSPRY	-0.73	inactive
TPST2	-0.29	inactive
TPST2	-0.15	inactive
TPST2	0.62	inactive
TPST2	1.07	inactive
LRRC14	-0.98	inactive
LRRC14	-1.24	inactive
LRRC14	-1.17	inactive
LRRC14	-0.39	inactive
GOLGA8B	-1.27	inactive
GOLGA8B	-1.07	inactive
GOLGA8B	-0.72	inactive
GOLGA8B	-0.9	inactive
MRPL14	0.3	inactive
MRPL14	-0.43	inactive
MRPL14	-0.89	inactive
MRPL14	0.09	inactive
MOCS1	0.1	inactive
MOCS1	0.84	inactive
MOCS1	0.05	inactive
MOCS1	0.56	inactive
ZP4	-0.72	inactive
ZP4	-0.4	inactive
ZP4	-0.26	inactive
DDTL	1.44	inactive
DDTL	-0.22	inactive
DDTL	-0.07	inactive
DDTL	0.89	inactive
PPIF	0.98	inactive
PPIF	0.97	inactive
PPIF	1.76	inactive
PPIF	0.09	inactive
NKAIN3	-1.48	inactive
NKAIN3	0.54	inactive
NKAIN3	1.39	inactive
NKAIN3	0.38	inactive
ZNF174	0.25	inactive
ZNF174	-0.26	inactive
ZNF174	0.57	inactive
APOA5	-0.1	inactive
APOA5	2.91	active
APOA5	2.75	inactive
APOA5	1.66	inactive
CRISP1	1.11	inactive
CRISP1	-0.01	inactive
CRISP1	1.25	inactive
CRISP1	0.33	inactive
MMACHC	1.51	inactive
MMACHC	2.29	inactive
MMACHC	0.93	inactive
MMACHC	0.71	inactive
PRG2	-1.57	active
PRG2	0.02	inactive
PRG2	1.15	inactive
PRG2	-0.27	inactive
SHROOM1	-1.25	inactive
SHROOM1	-1.05	inactive
SHROOM1	-1.38	inactive
SHROOM1	-0.92	inactive
PAPOLB	0.2	inactive
PAPOLB	1.41	inactive
PAPOLB	0.79	inactive
PAPOLB	-0.72	inactive
CAMK1	-0.68	inactive
CAMK1	-0.44	inactive
CAMK1	-0.69	inactive
CAMK1	0.08	inactive
MT1H	-0.69	inactive
MT1H	-0.51	inactive
MT1H	-0.04	inactive
MT1H	-0.26	inactive
PRAMEF12	-0.75	inactive
PRAMEF12	1.44	inactive
PRAMEF12	1.06	inactive
PRAMEF12	2.2	inactive
DUOX1	-0.19	inactive
DUOX1	0.59	inactive
DUOX1	0.66	inactive
DUOX1	0	inactive
C5orf34	-0.52	inactive
C5orf34	-0.38	inactive
C5orf34	-1.03	inactive
C5orf34	-0.97	inactive
RASSF3	1.94	inactive
RASSF3	2.13	inactive
RASSF3	1.29	inactive
RASSF3	2.42	inactive
MYBPHL	-0.86	inactive
MYBPHL	-1.01	inactive
MYBPHL	-1.22	inactive
MYBPHL	-1.43	inactive
ARMC1	-0.81	inactive
ARMC1	-0.78	inactive
ARMC1	-1.23	inactive
ARMC1	-0.83	inactive
KLHL28	0.62	inactive
KLHL28	-0.17	inactive
KLHL28	0.41	inactive
KLHL28	1.37	inactive
